From US9376424B2, “Methods for treating post traumatic stress disorder” (AZEVAN PHARMACEUTICALS, INC., priority 2010, dated 2016)
At least one compound was matched to its structure with a doubt left.

System: C57B1/6J males
Test: Social Interaction Test after chronic social subjugation
Format: in vivo, mouse
Conditions: mice, 28-day treatment regimen
Source text: Mouse Chronic Subordination Model of Depression. Social stress is a factor in the etiology of several psychopathologies, with individuals differing in vulnerability. Adult male mice are subjected to a model of chronic psychosocial stress in which resident/intruder dyads live chronically in sensory contact and physically interact on a daily basis.
Anti-depressant Effect in the Social Interaction Test. […] A rapid subjugation paradigm in mice lead to diminished social interaction behavior, where the dependent measures are distance traveled and time in the Interaction Zone. […] These observations are consistent with the subordination/social interaction model as a rapid behavioral screen for potential antidepressants. Additional details are described in Berton et al. (2006).
Briefly, C57B1/6J males were defeated daily for 10 days by resident, highly aggressive CF-1 males. After 5 minutes of direct exposure, a perforated plastic partition was inserted into the cage that allowed olfactory and visual contact without physical defeat for the remaining 23 hr 55 min each day. […] A dominant male was caged in an area of the open field apparatus termed the “social interaction zone.” Time and distance traveled in the zone were recorded. […] Behavioral changes were determined by calculating difference scores (Post-Pretest) and these scores were analyzed.

How did the “effect on deficits in social interaction produced by chronic subordination” value turn out when `CNC1=Nc2ccc(Cl)cc2C(c2ccccc2)=[N+]([O-])C1` [CDP, chlordiazepoxide] was run?
Its value is “had no effect”.
